This passage reports inhibition results from US20130072459A1, “PHARMACEUTICAL COMPOSITION FOR THE PREVENTION OR THE TREATMENT OF NON-ALCOHOLIC FATTY LIVER DISEASE AND THE METHOD FOR PREVENTION OR TREATMENT OF NON-ALCOHOLIC FATTY LIVER DISEASE USING THE SAME” (priority 2010, published 2013).

SMILES strings stand for the structures.

The test system of this test is HepG2 cells. Nature of the test: Free fatty acid-induced intracellular fat accumulation, Nile Red staining. Format: cell-based. To be noted: Homo sapiens, 0.5 mM free fatty acid, 24 hours, read-out: inhibitory effects on free fatty acid-induced fat accumulation. How it is done:
By a combined treatment of free fatty acid and a drug, inhibitory effects of individual drugs on intracellular fat accumulation were quantified using a triglyceride staining method. The human hepatoma cell line, HepG2 cells were cultured in a minimum essential medium (MEM) containing 10(v/v) % fetal bovine serum for 48 hours. […] For the negative control group, a MEM containing 1(v/v) % bovine serum albumin was treated with 0.1(v/v) % dimethyl sulfoxide with no addition of free fatty acid. After the culture was complete, the medium was removed and the cells were washed with a phosphate buffer. […] After the staining was complete, the supernatant was discarded and replaced with a phosphate buffer, followed by measurement of fluorescence intensities under conditions of a 488 nm excitation wavelength and a 550 nm emission wavelength. Then, in order to correct a deviation according to the cell count, a phosphate buffer containing 10 μM resazurin (Sigma) dissolved therein was added to the same well. Thereafter, before and after the reaction at 37° C. for 1 hour under light-shielded conditions, fluorescence intensities were measured using a fluorometer under conditions of a 535 nm excitation wavelength and a 580 nm emission wavelength, whereby an increase in fluorescence intensity due to resorufin reduced and formed by the intracellular mitochondrial activity was measured. […]

As to `CC(C)OC(=O)C(C)(C)Oc1ccc(C(=O)c2ccc(Cl)cc2)cc1` [fenofibrate], the inhibition at 30 µM was 35.6 ± 6.5%.
